According to the supplement of paper PMC3334620:
The full ranking holds about 33,000 sequences; the median of “E-score (-0.5 to 0.5)” is about -0.0034, and the highest 2% start at about 0.25. This is one part of the list.

target: T1, Yap3 (UniProt P38749); assay: PBM E-score (8-mer binding enrichment) (E-score (-0.5 to 0.5)); higher = stronger / more preferred TF binding; details: protein concentration: 100 nM; construct: GST-full length
T1 sequence: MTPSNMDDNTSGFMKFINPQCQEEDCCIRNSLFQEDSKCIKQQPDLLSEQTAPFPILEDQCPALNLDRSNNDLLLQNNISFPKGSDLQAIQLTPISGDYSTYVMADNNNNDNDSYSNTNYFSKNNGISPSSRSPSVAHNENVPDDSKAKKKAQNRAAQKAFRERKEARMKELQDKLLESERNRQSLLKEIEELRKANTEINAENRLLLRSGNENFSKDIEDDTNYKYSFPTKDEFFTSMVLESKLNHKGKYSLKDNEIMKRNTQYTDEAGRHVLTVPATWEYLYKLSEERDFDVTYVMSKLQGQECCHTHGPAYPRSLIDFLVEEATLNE
How it was run: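 Universal all-10-mer Agilent arrays, double-stranded by primer extension on fresh or once-stripped slides, were probed with about 100-200 nM GST-tagged yeast transcription factors made by PURExpress. Fluorescent anti-GST detected bound protein, and masliner normalised the scans. E-scores from the Universal PBM Analysis Suite were given to each ungapped eight-base word pooled with its reverse complement.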

Sequence | PBM E-score
AGGCTTCG | -0.0931
GCACGCGC | -0.0469
ACGAGATC | -0.00149
CAGCTGCG | -0.159
ACGACACC | 0.0139
CATGCAAA | 0.121
CATCTCAG | 0.214
GACATTTA | 0.0833
CATCATCA | -0.0145
AGCACTCA | -0.0397
CGTACACG | -0.0424
AAGGGCGG | -0.178
ACCGTAGA | 0.0691
GTACTTCA | 0.287
AACCACCG | -0.0601
ACGCGGAA | 0.0747
CTATCGAA | 0.134
AGATGCGG | 0.00762
GGCCAAAA | -0.017
CACCATAG | -0.194
CATAACAC | 0.141
CCAACCTA | -0.0656
ATTGTCCC | -0.0533
GATAACCC | -0.116
CGACGAAA | 0.164

Sequence | PBM E-score
AATTCCAT | 0.111
CGGTCTGC | -0.152
GACTTGGA | -0.023
CCGGTATC | -0.113
AACGCAGG | -0.0496
AAAGAAGA | 0.0167
ACGGTGGC | -0.0704
CGTTGGAC | -0.13
CAAATGGC | -0.0048
ACGATGAA | 0.0863
ACCCGGTG | -0.243
ACAACCCG | -0.0235
GGCCGCTA | -0.191
ACATTTGC | 0.0539
ACAGAATG | 0.0204
AAAACGCA | 0.0949
ACCTGATG | -0.0717
AGCAAGTA | 0.146
ATAGTATC | 0.194
AATGGACC | 0.0727
CTGCTATC | 0.0643
GGTCTTGA | -0.155
CTGAGGAA | -0.0654
AGGGTTAA | -0.101
AAAGCCAG | 0.0805

Sequence | PBM E-score
AATTCGGG | 0.043
TGACTTAA | 0.111
ACACAAGC | 0.0803
CATCCTAA | 0.0568
ACACTACT | 0.174
CGAATCCC | -0.0351
AAATTCAA | 0.117
CCCCGTCC | -0.327
AAGCCGCG | -0.0993
CCGCATGA | -0.136
ACGCCATA | 0.0832
CCTCTAGC | -0.189
CAGCCAGG | -0.0639
CATGACAA | 0.143
GAGAATAC | 0.115
CTAGGCCA | -0.0903
TCTTGAAA | 0.173
ATACCCAT | 0.0631
CTTTGTAC | 0.0552
AACACGTG | 0.205
ACTGCCAG | -0.0114
GGTCTTAA | -0.237
AACCGGCC | -0.209
GTGACTGA | 0.167
GCGAGAAA | 0.116

Sequence | PBM E-score
GTAAACGA | 0.0279
CTGGGGCA | -0.309
TAACGTCA | 0.0893
AGAACCCC | -0.184
AGAGAAAC | 0.156
CCAATGCA | 0.0288
AAGGCGCA | -0.036
CCGAAAGG | -0.13
CACGACGG | 0.116
CGATAGCC | -0.0534
AGGTGAAT | 0.0312
ACATCCAG | 0.0264
ACTGCCTA | -0.0156
AAAAGTAA | 0.246
CCACCTCG | -0.214
CTCGTATA | -0.142
TGTATGAA | 0.111
AACTTCAT | 0.145
GGGATTCA | 0.0245
CCTGTTCG | 0.0413
GAGGGGCA | -0.299
GAGTAACC | 0.112
GGAAGGTA | -0.0252
CAATAGGC | -0.0943
CAATGAGG | -0.145

Sequence | PBM E-score
AGTGCTAT | 0.0685
GAAAGATC | -0.0498
GGGGGGAA | -0.206
CTGTATGC | -0.0877
GGACGGAA | -0.125
AGCCCCCG | -0.415
CGCCAACG | -0.119
ACAAGATA | 0.136
GCAGCGAC | -0.269
GGTTGCCA | -0.0346
CCAGTAAG | -0.0333
GCTCCTAC | -0.234
GCGCAGCA | -0.307
CTAAGCGA | 0.00759
ATGACTAC | 0.0437
ACTGCGAA | -0.187
AGGGTAGA | -0.0934
GGTACGGA | -0.0413
CATGTCGC | 0.0256
ACGTCCCA | -0.201
AGCTAGGC | -0.207
CAGCCTAG | 0.0532
AAGCAAAT | 0.0796
ATCACGAG | -0.127
AGGACCAG | -0.141

Sequence | PBM E-score
AGCGTAAG | 0.0664
GCTATCCC | -0.111
ACGCTTTG | 0.113
CTGGTAAA | 0.0949
ATTGAACG | 0.0667
ATCGTTGC | 0.0555
CCCTTCTA | -0.143
ACTGGCGC | -0.116
ACTCTGAT | 0.0185
AGCCGCCT | -0.096
GGCACAGA | -0.233
CGCGGACG | -0.072
AACGAAGT | -0.0967
GACGGCGA | -0.184
ACATTCCG | 0.0451
AAGCGAAA | 0.0738
AATCAAAG | -9e-05
ATGATGAC | 0.161
ACCGTGGC | -0.174
AGTCTATA | -0.125
AATTAAAG | 0.121
CTCAGCAA | 0.0502
AACACATG | 0.121
CAGGGCTA | -0.145
AGTTAAAG | 0.111

In another format: results already given.
ATAGTATC
  PBM E-score = 0.194
TGACTTAA
  PBM E-score = 0.111
CCCCGTCC
  PBM E-score = -0.327
GAGTAACC
  PBM E-score = 0.112

Remaining list, next part

Sequence | PBM E-score
CCACTGTC | -0.187
CCGCCTTC | -0.156
GCGTTTAA | 0.122
AAGTGCGA | -0.247
CCCGAAGG | -0.122
CGCTTCTA | 0.0325
GCACACTA | 0.0181
TGCTAGCA | -0.0927
CGCGCGAA | -0.00819
AGAACGCG | 0.14
CCAGGAAA | 0.108
CCTTCCTA | -0.253
ACCATCTG | -0.0917
ATGGACCG | -0.0751
CCATACCA | 0.0238
CTTGTGAC | -0.0821
CATGGTTC | 0.123
ATTGAGGC | 0.0601
ATACAGCC | 0.00933
CACCCCGC | -0.207
AATATGGA | 0.123
ACGCACCT | -0.0472
GGTCTTAC | -0.123
ACTTGGCC | -0.0737
AGCTCAGA | -0.0842

Sequence | PBM E-score
CAGGTTCC | -0.113
CCGCTTGC | -0.066
CGCCTTCA | -0.295
AACTGGAA | 0.0582
AGTGTGTG | 0.0249
GAGGAACC | -0.0896
CATCAATC | -0.0452
CAGTGCGG | -0.138
CTTTCTAC | 0.157
GAACAACA | 0.12
AGAAGACG | 0.2
CGGGCAGA | 0.00944
CACTCAAA | 0.0945
AGATTACT | 0.122
ATTACATA | 0.233
TCATTACA | 0.247
CTAAACTC | -0.0352
CTAGAAAG | 0.0742
AGATACCT | -0.0664
GCGGTGTA | -0.064
AAAGACGG | -0.00958
AACGTGTA | -0.0475
GGGCAATA | 0.0845
ATATCAGC | 0.0878
CGACTTTA | 0.0707

Sequence | PBM E-score
TGAATGAA | 0.182
CAAGTTCG | -0.0995
ACGGAACT | 0.0114
ATCGAAAT | 0.0378
AGAGATCA | 0.0988
CTGTAATC | -0.00575
TATCAGCA | 0.0717
ACCCAAGG | 0.0773
TAACGGGA | -0.124
CAAGATGA | -0.0997
ATCGACTA | 0.0167
CGGACGAC | -0.109
CAAGATAA | 0.221
ATAATGGG | 0.139
ATATGTAA | 0.211
AGACCAGC | -0.265
ACTCCGTA | -0.0154
ACGGTTCC | -0.0727
CTTATCGC | -0.0461

Two successive entries from above, quoted:
Sequence | PBM E-score
TAACGGGA | -0.124
CAAGATGA | -0.0997
